B1: GOT2 (protein, UniProt P00505 30-430, looked up)
Aspartate aminotransferase, …: SSWWTHVEMGPPDPILGVTEAFKRDTNSKKMNLGVGAYRDDNGKPYVLPSVRKAEAQIAAKNLDKEYLPIGGLAEFCKASAELALGENSEVLKSGRFVTVQTISGTGALRIGASFLQRFFKFSRDVFLPKPTWGNHTPIFRDAGMQLQGYRYYDPKTCGFDFTGAVEDISKIPEQSVLLLHACAHNPTGVDPRPEQWKEIATVVKKRNLFAFFDMAYQGFASGDGDKDAWAVRHFIEQGINVCLCQSYAKNMGLYGERVGAFTMVCKDADEAKRVESQLKILIRPMYSNPPLNGARIAAAILNTPDLRKQWLQEVKVMADRIIGMRTQLVSNLKKEGSTHNWQHITDQIGMFCFTGLKPEQVERLIKEFSIYMTKDGRISVAGVTSSNVGYLAHAIHQVTK
B2: DNAJC9 (protein, UniProt Q8WXX5 1-260, looked up)
DnaJ homolog subfamily C …: MGLLDLCEEVFGTADLYRVLGVRREASDGEVRRGYHKVSLQVHPDRVGEGDKEDATRRFQILGKVYSVLSDREQRAVYDEQGTVDEDSPVLTQDRDWEAYWRLLFKKISLEDIQAFEKTYKGSEEELADIKQAYLDFKGDMDQIMESVLCVQYTEEPRIRNIIQQAIDAGEVPSYNAFVKESKQKMNARKRRAQEEAKEAEMSRKELGLDEGVDSLKAAIQSRQKDRQKEMDNFLAQMEAKYCKSSKGGGKKSALKKEKK
B3: SF3B3 (protein)
chain: MFLYNLTLQRATGISFAIHGNFSGTKQQEIVVSRGKILELLRPDPNTGKVHTLLTVEVFGVIRSLMAFRLTGGTKDYIVVGSDSGRIVILEYQPSKNMFEKIHQETFGKSGCRRIVPGQFLAVDPKGRAVMISAIEKQKLVYILNRDAAARLTISSPLEAHKANTLVYHVVGVDVGFENPMFACLEMDYEEADNDPTGEAAANTQQTLTFYELDLGLNHVVRKYSEPLEEHGNFLITVPGGSDGPSGVLICSENYITYKNFGDQPDIRCPIPRRRNDLDDPERGMIFVCSATHKTKSMFFFLAQTEQGDIFKITLETDEDMVTEIRLKYFDTVPVAAAMCVLKTGFLFVASEFGNHYLYQIAHLGDDDEEPEFSSAMPLEEGDTFFFQPRPLKNLVLVDELDSLSPILFCQIADLANEDTPQLYVACGRGPRSSLRVLRHGLEVSEMAVSELPGNPNAVWTVRRHIEDEFDAYIIVSFVNATLVLSIGETVEEVTDSGFLGTTPTLSCSLLGDDALVQVYPDGIRHIRADKRVNEWKTPGKKTIVKCAVNQRQVVIALTGGELVYFEMDPSGQLNEYTERKEMSADVVCMSLANVPPGEQRSRFLAVGLVDNTVRIISLDPSDCLQPLSMQALPAQPESLCIVEMGGTEKQDELGERGSIGFLYLNIGLQNGVLLRTVLDPVTGDLSDTRTRYLGSRPVKLFRVRMQGQEAVLAMSSRSWLSYSYQSRFHLTPLSYETLEFASGFASEQCPEGIVAISTNTLRILALEKLGAVFNQVAFPLQYTPRKFVIHPESNNLIIIETDHNAYTEATKAQRKQQMAEEMVEAAGEDERELAAEMAAAFLNENLPESIFGAPKAGNGQWASVIRVMNPIQGNTLDLVQLEQNEAAFSVAVCRFSNTGEDWYVLVGVAKDLILNPRSVAGGFVYTYKLVNNGEKLEFLHKTPVEEVPAAIAPFQGRVLIGVGKLLRVYDLGKKKLLRKCENKHIANYISGIQTIGHRVIVSDVQESFIWVRYKRNENQLIIFADDTYPRWVTTASLLDYDTVAGADKFGNICVVRLPPNTNDEVDEDPTGNKALWDRGLLNGASQKAEVIMNYHVGETVLSLQKTTLIPGGSESLVYTTLSGGIGILVPFTSHEDHDFFQHVEMHLRSEHPPLCGRDHLSFRSYYFPVKNVIDGDLCEQFNSMEPNKQKNVSEELDRTPPEVSKKLEDIRTRYAF
B4: SCAF4 (protein, UniProt O95104 1-1147, looked up)
SR-related and CTD-associated …: MDAVNAFNQELFSLMDMKPPISRAKMILITKAAIKAIKLYKHVVQIVEKFIKKCKPEYKVPGLYVIDSIVRQSRHQFGTDKDVFGPRFSKNITATFQYLYLCPSEDKSKIVRVLNLWQKNGVFKIEIIQPLLDMAAGTSNAAPVAENVTNNEGSPPPPVKVSSEPPTQATPNSVPAVPQLPSSDAFAAVAQLFQTTQGQQLQQILQTFQQPPKPQSPALDNAVMAQVQAITAQLKTTPTQPSEQKAAFPPPEQKTAFDKKLLDRFDYDDEPEAVEESKKEDTTAVTTTAPAAAVPPAPTATVPAAAAPAAASPPPPQAPFGFPGDGMQQPAYTQHQNMDQFQPRMMGIQQDPMHHQVPLPPNGQMPGFGLLPTPPFPPMAQPVIPPTPPVQQPFQASFQAQNEPLTQKPHQQEMEVEQPCIQEVKRHMSDNRKSRSRSASRSPKRRRSRSGSRSRRSRHRRSRSRSRDRRRHSPRSRSQERRDREKERERRQKGLPQVKPETASVCSTTLWVGQLDKRTTQQDVASLLEEFGPIESINMIPPRGCAYIVMVHRQDAYRALQKLSRGNYKVNQKSIKIAWALNKGIKADYKQYWDVELGVTYIPWDKVKPEELESFCEGGMLDSDTLNPDWKGIPKKPENEVAQNGGAETSHTEPVSPIPKPLPVPVPPIPVPAPITVPPPQVPPHQPGPPVVGALQPPAFTPPLGIPPPGFGPGVPPPPPPPPFLRPGFNPMHLPPGFLPPGPPPPITPPVSIPPPHTPPISIPNSTIAGINEDTTKDLSIGNPIPTVVSGARGNAESGDSVKMYGSAVPPAAPTNLPTPPVTQPVSLLGTQGVAPGPVIGLQAPSTGLLGARPGLIPLQRPPGMPPPHLQRFPLMPPRPMPPHMMHRGPPPGPGGFAMPPPHGMKGPFPPHGPFVRPGGMPGLGGPGPGPGGPEDRDGRQQPPQQPQQQPQPQAPQQPQQQQQQQPPPSQQPPPTQQQPQQFRNDNRQQFNSGRDQERFGRRSFGNRVENDRERYGNRNDDRDNSNRDRREWGRRSPDRDRHRDLEERNRRSSGHRDRERDSRDRESRREKEEARGKEKPEVTDRAGGNKTVEPPISQVGNVDTASELEKGVSEAAVLKPSEELPAEATSSVEPEKDSGSAAEAPR
B5: CSTF3 (protein, UniProt Q12996 2-717, looked up)
Cleavage stimulation factor …: SGDGATEQAAEYVPEKVKKAEKKLEENPYDLDAWSILIREAQNQPIDKARKTYERLVAQFPSSGRFWKLYIEAEIKAKNYDKVEKLFQRCLMKVLHIDLWKCYLSYVRETKGKLPSYKEKMAQAYDFALDKIGMEIMSYQIWVDYINFLKGVEAVGSYAENQRITAVRRVYQRGCVNPMINIEQLWRDYNKYEEGINIHLAKKMIEDRSRDYMNARRVAKEYETVMKGLDRNAPSVPPQNTPQEAQQVDMWKKYIQWEKSNPLRTEDQTLITKRVMFAYEQCLLVLGHHPDIWYEAAQYLEQSSKLLAEKGDMNNAKLFSDEAANIYERAISTLLKKNMLLYFAYADYEESRMKYEKVHSIYNRLLAIEDIDPTLVYIQYMKFARRAEGIKSGRMIFKKAREDTRTRHHVYVTAALMEYYCSKDKSVAFKIFELGLKKYGDIPEYVLAYIDYLSHLNEDNNTRVLFERVLTSGSLPPEKSGEIWARFLAFESNIGDLASILKVEKRRFTAFKEEYEGKETALLVDRYKFMDLYPCSASELKALGYKDVSRAKLAAIIPDPVVAPSIVPVLKDEVDRKPEYPKPDTQQMIPFQPRHLAPPGLHPVPGGVFPVPPAAVVLMKLLPPPICFQGPFVQVDELMEIFRRCKIPNTVEEAVRIITGGAPELAVEGNGPVESNAVLTKAVKRPNEDSDEDEEKGAVVPPVHDIYRARQQKRIR
B6: CAND1 (protein, UniProt Q86VP6 2-1230, looked up)
Cullin-associated …: ASASYHISNLLEKMTSSDKDFRFMATNDLMTELQKDSIKLDDDSERKVVKMILKLLEDKNGEVQNLAVKCLGPLVSKVKEYQVETIVDTLCTNMLSDKEQLRDISSIGLKTVIGELPPASSGSALAANVCKKITGRLTSAIAKQEDVSVQLEALDIMADMLSRQGGLLVNFHPSILTCLLPQLTSPRLAVRKRTIIALGHLVMSCGNIVFVDLIEHLLSELSKNDSMSTTRTYIQCIAAISRQAGHRIGEYLEKIIPLVVKFCNVDDDELREYCIQAFESFVRRCPKEVYPHVSTIINICLKYLTYDPNYNYDDEDEDENAMDADGGDDDDQGSDDEYSDDDDMSWKVRRAAAKCLDAVVSTRHEMLPEFYKTVSPALISRFKEREENVKADVFHAYLSLLKQTRPVQSWLCDPDAMEQGETPLTMLQSQVPNIVKALHKQMKEKSVKTRQCCFNMLTELVNVLPGALTQHIPVLVPGIIFSLNDKSSSSNLKIDALSCLYVILCNHSPQVFHPHVQALVPPVVACVGDPFYKITSEALLVTQQLVKVIRPLDQPSSFDATPYIKDLFTCTIKRLKAADIDQEVKERAISCMGQIICNLGDNLGSDLPNTLQIFLERLKNEITRLTTVKALTLIAGSPLKIDLRPVLGEGVPILASFLRKNQRALKLGTLSALDILIKNYSDSLTAAMIDAVLDELPPLISESDMHVSQMAISFLTTLAKVYPSSLSKISGSILNELIGLVRSPLLQGGALSAMLDFFQALVVTGTNNLGYMDLLRMLTGPVYSQSTALTHKQSYYSIAKCVAALTRACPKEGPAVVGQFIQDVKNSRSTDSIRLLALLSLGEVGHHIDLSGQLELKSVILEAFSSPSEEVKSAASYALGSISVGNLPEYLPFVLQEITSQPKRQYLLLHSLKEIISSASVVGLKPYVENIWALLLKHCECAEEGTRNVVAECLGKLTLIDPETLLPRLKGYLISGSSYARSSVVTAVKFTISDHPQPIDPLLKNCIGDFLKTLEDPDLNVRRVALVTFNSAAHNKPSLIRDLLDTVLPHLYNETKVRKELIREVEMGPFKHTVDDGLDIRKAAFECMYTLLDSCLDRLDIFEFLNHVEDGLKDHYDIKMLTFLMLVRLSTLCPSAVLQRLDRLVEPLRATCTTKVKANSVKQEFEKQDELKRSAMRAVAALLTIPEAEKSPLMSEFQSQISSNPELAAIFESIQKDSSSTNLESMDTS
B7: DIMT1 (protein, UniProt Q9UNQ2 1-313, looked up)
Dimethyladenosine transferase: MPKVKSGAIGRRRGRQEQRRELKSAGGLMFNTGIGQHILKNPLIINSIIDKAALRPTDVVLEVGPGTGNMTVKLLEKAKKVVACELDPRLVAELHKRVQGTPVASKLQVLVGDVLKTDLPFFDTCVANLPYQISSPFVFKLLLHRPFFRCAILMFQREFALRLVAKPGDKLYCRLSINTQLLARVDHLMKVGKNNFRPPPKVESSVVRIEPKNPPPPINFQEWDGLVRITFVRKNKTLSAAFKSSAVQQLLEKNYRIHCSVHNIIIPEDFSIADKIQQILTSTGFSDKRARSMDIDDFIRLLHGFNAEGIHFS
B8: HNRNPC (protein, UniProt P07910 2-306, looked up)
Heterogeneous nuclear …: ASNVTNKTDPRSMNSRVFIGNLNTLVVKKSDVEAIFSKYGKIVGCSVHKGFAFVQYVNERNARAAVAGEDGRMIAGQVLDINLAAEPKVNRGKAGVKRSAAEMYGSVTEHPSPSPLLSSSFDLDYDFQRDYYDRMYSYPARVPPPPPIARAVVPSKRQRVSGNTSRRGKSGFNSKSGQRGSSKSGKLKGDDLQAIKKELTQIKQKVDSLLENLEKIEKEQSKQAVEMKNDKSEEEQSSSSVKKDETNVKMESEGGADDSAEEGDLLDDDDNEDRGDDQLELIKDDEKEAEEGEDDRDSANGEDDS

One data set concerns mSWI/SNF complexes. The data set is described as follows: mSWI/SNF complex purification with HA-tagged baits and mass spectrometry (peptide counts). Further details: species or system human. The following applies: 293_HA-BRD7: HA-BRD7 bait purification, total peptide count per co-purified protein.
Consider B1, for which the Total stood at 4.

In turn, B2 had a Total of 4.

On to B3, for which the Total is reported as 4.

Molecule B4 had a Total of 4.

The molecule B5 came in with a Total of 4.

As to B6, the Total is given as 4.

B7 gave a Total of 4.

On to B8, for which the Total was found to be 4.

The same data set, now with this note: 293_HA-BRD7: HA-BRD7 bait purification, unique peptide count per co-purified protein.
For the molecule B1, the Unique amounted to 4.

In the case of B2, the Unique was 4.

On to B3, for which the Unique amounted to 4.

Molecule B4 had a Unique of 4.

The molecule B5 displayed a Unique of 4.

B6 returned a Unique of 4.

In turn, B7 returned a Unique of 4.

With B8, the Unique came to 4.

Still in this data set, the particulars now being: 293_HA-BRD7 bait purification, mass spectrometry; total peptides per co-purified protein.
In turn, B8 gave a Total of 1.

The data set is the same for the next values; noted with them: 293_HA-BRD7 bait purification, mass spectrometry; unique peptides per co-purified protein.
Molecule B8 displayed a Unique of 1.

Values taken from patent US12729225B2, “Non-canonical SWI/SNF complex and uses thereof” (Dana-Farber Cancer Institute, Inc., priority 2018, dated 2026).
